# Reference: PubChem BioAssay AID624404 (Broad Institute, 2012)
# The whole screen tested about 1,800 compounds, of which about 710 (39%) were called active. Inconclusive results, whose numbers are uncertain, are shown with a selection of clear calls.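 How the source made its calls: active means luciferase signal rise whose fitted curve crosses a set activity limit at or below the top valid tested dose; inconclusive means flat fit with 30 to 70% rise, or poor fit; inactive means signal falling, flat within 30%, or crossing above top dose.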
# Assay: luciferase activators in glycosylation-insensitive reporter cells, dose response, counter-screen for N-linked glycosylation inhibitor project, D54 LucT cells, luminescence, cherry pick (AID 624404);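 further: 0% = median neutral control signal and 100% = twice that signal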
# Details: D54 LucT luciferase reporter counterscreen, 24 h; at 19.5 µM (top of the series) unless noted
row,Compound,activity increase (luciferase signal)
1,CCOc1ccc(C(=O)Nc2cc(-c3nc4ccccc4[nH]3)ccc2Cl)cc1[N+](=O)[O-],inconclusive: 67.6%
2,CCCCCCCCCCCCCCCC[n+]1ccc(/C=N/O)cc1,inactive: -67.7%
3,COc1cc(/C=N/NC(=O)c2ccc(CSc3nc4ccccc4[nH]3)cc2)cc(OC)c1OC,inconclusive: 70.8%
4,CC(=O)c1cccc(Nc2c3c(nc4ccccc24)CCC3)c1,inconclusive: 22.8%
5,CN1C/C(=C\c2ccc(N3CCOCC3)cc2)C(=O)/C(=C/c2ccc(N3CCOCC3)cc2)C1,inactive: -37.8%
6,COc1ccc(C(=O)C=Cc2ccc(OCc3ccccc3)c(OC)c2)cc1OC,inactive: 45.9%
7,Cn1c(C(=O)OCC(=O)NCc2ccc(F)cc2)cc2occc21,inconclusive: 41.1%
8,O=C(CN1C(=O)NC2(CCCCC2)C1=O)Nc1ccc2c(c1)CCC2,inconclusive: 23.8%
9,CCN(CC)Cc1cc(Nc2c3ccccc3nc3c4ccccc4n(C)c23)cc(CN(CC)CC)c1O,inactive: 13%
10,NC(N)=N/N=C/c1ccc2cccc(OCc3ccccc3)c2n1,inactive: 20.1%
11,CC(C)Oc1ccccc1C1CC(=O)Nc2cc3c(cc21)OCO3 (stereo unspecified),inactive: 13%
12,Cc1ccc(-c2nn3c(C)nnc3s2)cc1NCc1c(F)cccc1Cl,inconclusive: 66.3%
13,O=C(NCc1cccs1)C1CC(c2ccc(Cl)c(Cl)c2)=NO1 (stereo unspecified),inactive: 27.1%
14,CCc1ccc(/C=N/NC(=O)c2cc(-c3ccncc3)nc3ccccc23)s1,inactive: 16.7%
15,CCOC(=O)Nc1c2ccccc2nc2ccccc12,inactive: -12.6%
16,CCOC(=O)C1=CC[C@@H](c2ccncc2)N(S(=O)(=O)c2ccc(C)cc2)C1,inconclusive: 68.4%
17,COc1cc(C(=O)Nc2ccc3c(c2)CCN3C(C)=O)cc(OC)c1OC,inconclusive: 63.7%
18,COc1cc2c(C(=O)N3CCN(c4cccc(Cl)c4)CC3)cn(C)c(=O)c2cc1OC,inactive: 44.3%
19,COC(=O)c1cn(C(=O)/C=C/c2ccc(OC)c(OC)c2)c2ccccc12,inconclusive: 65.4%
20,CNc1ccc(Br)cc(C(=O)/C=C/c2ccc(OC)cc2)c1=O,inconclusive: 37.5%
21,COc1ccc(S(=O)(=O)NCc2ccccn2)cc1NC(=O)c1ccccc1F,inconclusive: 55.5%
22,COc1cc2ccccc2cc1C(=O)N1CCc2ccccc21,inconclusive: 51.8%

row,Compound,activity increase (luciferase signal)
1,CC1(C(=O)NCCc2ccccc2)Cc2c(-c3cccc(C(N)=O)c3)ccnc2O1 (stereo unspecified),inconclusive: 39.3%
2,CN(C)CCNC(=O)c1cccc2[nH]c(-c3ccncc3)nc12,inconclusive: 108% [at 5 µM]
3,Nc1ccc(C(=O)N2CCN(S(=O)(=O)c3ccc4c(c3)OCCO4)CC2)cc1[N+](=O)[O-],inconclusive: 54.7%
4,Cn1ncc2c(O/N=C(\N)c3ccc(C(F)(F)F)cc3)ncnc21,inactive: 9.8%
5,COc1ccc(NCC(=O)n2c(C)c(C)c3ccccc32)cc1,inconclusive: 77.8%
6,COc1ccc(/C=N/NC(=O)c2nc(-c3ccccc3)cc(-c3ccccc3)n2)cc1O,inconclusive: 100%
7,CCOc1ccc(NC(=O)c2cc(OC)nc3ccccc23)cc1,inconclusive: 24.1%
8,COc1ccccc1-c1cc(NC=O)c2ncc(-c3ccc(S(C)(=O)=O)cc3)n2c1,inconclusive: 44.3%
9,CCOc1ccc2c(c1)C(=NNC(=O)c1ccncc1)c1cc(OCC)ccc1-2,inactive: -20.8%
10,Cc1cccn2c(=O)c3cc(C(=O)NCCN4CCOCC4)c(=N)n(CCc4ccccc4)c3nc12,inactive: -13.9%
11,Cc1ccc(OC(=O)CCC(=O)Oc2ccc(C)cc2C)c(C)c1,inconclusive: 44.7%
12,COC(=O)c1cc(=O)n(Cc2ccco2)c(=Nc2ccc(F)cc2)s1,inactive: 8.46%
13,CN(C)C(=O)c1cccc(-c2cnc3c(NC=O)cc(-c4ccccc4Cl)cn23)c1,inactive: 51.8%
14,CC(C)(C)n1nnnc1C(c1ccccc1)N1CCc2ccccc2C1 (stereo unspecified),inactive: 29.5%
15,CCOc1ccc2[nH]c(=O)c(CN(Cc3ccc(F)cc3)C(=O)c3ccco3)cc2c1,inactive: 28.1%
16,Cc1cc(NC(=O)CSc2nc3c(C)cccc3cc2C#N)no1,inconclusive: 41.4%
17,CCOC(=O)c1c(CN(C)C)n(C)c2c(O)c(N=NC(N)=O)c3ccc(Br)cc3c12,inconclusive: 49.8%
18,COc1ccc(-c2oc3cc(O)c(OC)c(O)c3c(=O)c2OC)cc1,inconclusive: 108%
19,CN1CCN(CC(=O)Nc2cc(N(C)C)nc3ccccc23)CC1,inactive: 15.8%
20,CN(C)CCOc1nc(-c2ccccc2)nc2c1oc1ccccc12,inactive: 14.3%
21,O=C(Cc1ccc(-c2ccccc2)cc1)NCc1ccccc1,inconclusive: 56%
22,O=c1cc(N/N=C/c2ccccc2)[nH]c(=O)[nH]1,inconclusive: 39%

row,Compound,activity increase (luciferase signal)
1,COc1cc(OC)cc(C(=O)N/N=C/c2ccc(OC)c(COc3ccc(F)cc3)c2)c1,inconclusive: 50.1%
2,Cc1cc([N+](=O)[O-])ccc1-c1ccc(/C=N/NC(=O)c2ccc(Br)o2)o1,inconclusive: 21.4%
3,Fc1ccc(CSc2ccc3nnc(-c4cccnc4)n3n2)cc1,inconclusive: -4.69%
4,COC(=O)c1ccc(/C=C/C(=O)c2ccc(OC)c(OC)c2)cc1,inconclusive: 60.5%
5,CC(=O)Nc1ccc(-c2ccnc3c2CC(C)(C(=O)NCc2ccco2)O3)cc1 (stereo unspecified),inconclusive: 53.8%
6,COCCNc1nc(-c2ccccc2CO)c2sc(-c3ccccc3)cc2n1,inconclusive: 21.9%
7,COc1ccccc1NC(=O)Cn1nnc(C(=O)NCc2cccs2)c1N,inconclusive: 35.3%
8,CNc1ncnc(Sc2ccc(Cl)cc2)c1[N+](=O)[O-],inconclusive: 34.1%
9,Cc1ccc(-c2nn3c(C)nnc3c3ccccc23)cc1S(=O)(=O)N1CCN(CCO)CC1,inconclusive: 61.1%
10,COc1cc(C(=O)N/N=C/c2ccccn2)cc(OC)c1OC,inconclusive: 53.6%
11,O=C(Nc1ccccc1)N1CCC(c2nc(-c3ccc(S(=O)(=O)N4CCOCC4)cc3)no2)CC1,inconclusive: 42.5%
12,O=C(COc1ccc(Oc2ccccc2)cc1)NCc1cn2ccccc2n1,inconclusive: 41.1%
13,Nc1c(C(=O)Nc2ccc(S(=O)(=O)N3CCCC3)cc2)sc2nc3ccc(OC(F)(F)F)cc3cc12,inconclusive: 72.4%
14,O=C(c1cc(-c2cccs2)nc2ccccc12)N1CCN(c2ccccc2)CC1,inconclusive: 91.6%
15,COc1ccccc1N1CCN(C(=O)c2ccc(Cl)c(S(=O)(=O)NCc3ccco3)c2)CC1,inconclusive: 31.5%
16,COc1ccc(C2=NOC(C(=O)NCc3ccco3)C2)cc1OC (stereo unspecified),inactive: 31.1%
17,COc1ccc(S(=O)(=O)N2N=C(C)Oc3ccccc3C2=O)cc1,inconclusive: 53.3%
18,Cc1ccc(-c2nn(-c3ccccc3)cc2NC(=O)CCl)cc1,inactive: -50%
19,CCOC(=O)c1ccc(-n2cccc2/C=C2\NC(=O)NC2=O)cc1,inactive: -16.1%
20,Cc1cccc(C(=O)Nc2cc(S(=O)(=O)N3CCOCC3)ccc2N2CCCC2)c1,inconclusive: 52.2%
21,COc1ccc(-c2nc3c(s2)CCc2onc(-c4ccc(OC)cc4)c2-3)cc1,inconclusive: 62.5%
22,COc1cc(C2CC(=O)N(c3ccc(C)cc3)C(=O)C2)cc(OC)c1OC,inactive: 12.2%

row,Compound,activity increase (luciferase signal)
1,CCN(CC)C(=O)CSc1nc2c(sc(=S)n2-c2ccccc2)c(=O)n1Cc1ccco1,inactive: -39.3%
2,CCCNC(=O)c1ccccc1NC(=O)c1ccc2c(c1)NC(=O)C(C)S2 (stereo unspecified),inconclusive: 61.8%
3,CC1(C(=O)NCc2ccco2)Cc2c(-c3cccc(C(N)=O)c3)ccnc2O1 (stereo unspecified),inconclusive: 23.5% [at 5 µM]
4,Oc1ccc(Nc2nc(NCC3CCCO3)c3ccccc3n2)cc1 (stereo unspecified),inactive: 14.1%
5,COc1cc(-c2cnc3c(NC(C)=O)cc(-c4ccccc4CN(C)C)cn23)cc(OC)c1OC,inconclusive: 33.8%
6,CN(C)CCCN1C(=O)c2cccc3c(Br)ccc(c23)C1=O,inactive: 3.12%
7,CC(=O)n1cc(/C=N/NC(=O)c2sc(C)nc2C)c2ccccc21,inactive: 65.5%
8,Cc1ccc(Nc2nc(-c3cccnc3)nc3ccccc23)cc1,inconclusive: 41.7%
9,CCCNS(=O)(=O)c1cccc(C(=O)OCc2cc(=O)oc3cc(OC)ccc23)c1,inconclusive: 35.2%
10,COc1ccc(C(=O)/C=C\c2ccc(NC(=O)c3cccs3)cc2)cc1,inactive: 35.6%
11,CCOC(=O)c1[nH]c(C)c(C(=O)Nc2ccc(C)c(F)c2)c1C,inconclusive: 61.6%
12,CCOC(=O)C1=C(Cc2ccc(F)cc2)C(=O)c2ccccc2C1=O,inactive: 39%
13,CCOC(=O)c1ccc(-c2ccc(/C=N/NC(=O)CN(c3cccc(C)c3)S(C)(=O)=O)o2)cc1,inconclusive: 28.1%
14,COc1ccc(CC(=O)N/N=C/c2c(C)n(C)c3ccccc23)cc1OC,inactive: -5.77%
15,COc1ccc(OC)c(Nc2cc3ccccc3c(=O)[nH]2)c1,inconclusive: 43.2%
16,COc1ccccc1NC1=NC(c2ccc(Cl)cc2)N=C(N)N1 (stereo unspecified),inconclusive: 29.8%
17,Cc1nnc(NC(=O)CSc2nc(C(C)C)nc3ccccc23)s1,inconclusive: 2.44%
18,CNC(=O)CSc1nc2nn(-c3ccccc3)c(=O)c-2c2n1CCCCC2,inconclusive: 73.6%
19,CCOc1ccccc1C(=O)Nc1ccsc1C(=O)OC,inconclusive: 53.7%
20,O=C(NCc1ccc(F)c(F)c1)C1Cc2c(-c3ccc4c(c3)OCO4)ccnc2O1 (stereo unspecified),inconclusive: 46.2%

# Ordered by formula weight (descending): 16 of the compounds above
row,Compound,activity increase (luciferase signal)
10,Cc1cccn2c(=O)c3cc(C(=O)NCCN4CCOCC4)c(=N)n(CCc4ccccc4)c3nc12,inactive: -13.9%
18,COc1cc2c(C(=O)N3CCN(c4cccc(Cl)c4)CC3)cn(C)c(=O)c2cc1OC,inactive: 44.3%
2,Cc1cc([N+](=O)[O-])ccc1-c1ccc(/C=N/NC(=O)c2ccc(Br)o2)o1,inconclusive: 21.4%
21,COc1ccc(S(=O)(=O)NCc2ccccn2)cc1NC(=O)c1ccccc1F,inconclusive: 55.5%
20,O=C(NCc1ccc(F)c(F)c1)C1Cc2c(-c3ccc4c(c3)OCO4)ccnc2O1 (stereo unspecified),inconclusive: 46.2%
2,CCCNC(=O)c1ccccc1NC(=O)c1ccc2c(c1)NC(=O)C(C)S2 (stereo unspecified),inconclusive: 61.8%
22,COc1cc(C2CC(=O)N(c3ccc(C)cc3)C(=O)C2)cc(OC)c1OC,inactive: 12.2%
19,COC(=O)c1cn(C(=O)/C=C/c2ccc(OC)c(OC)c2)c2ccccc12,inconclusive: 65.4%
12,COC(=O)c1cc(=O)n(Cc2ccco2)c(=Nc2ccc(F)cc2)s1,inactive: 8.46%
12,CCOC(=O)C1=C(Cc2ccc(F)cc2)C(=O)c2ccccc2C1=O,inactive: 39%
16,COc1ccc(C2=NOC(C(=O)NCc3ccco3)C2)cc1OC (stereo unspecified),inactive: 31.1%
4,COC(=O)c1ccc(/C=C/C(=O)c2ccc(OC)c(OC)c2)cc1,inconclusive: 60.5%
7,CCOc1ccc(NC(=O)c2cc(OC)nc3ccccc23)cc1,inconclusive: 24.1%
10,NC(N)=N/N=C/c1ccc2cccc(OCc3ccccc3)c2n1,inactive: 20.1%
11,CCOC(=O)c1[nH]c(C)c(C(=O)Nc2ccc(C)c(F)c2)c1C,inconclusive: 61.6%
8,CNc1ncnc(Sc2ccc(Cl)cc2)c1[N+](=O)[O-],inconclusive: 34.1%
